We go through two substances from PMC5433685.

Chains of the proteins cited; added tags and fusions are not shown. Lines headed by an entry give the natural chain unless they say otherwise; changes in a name come on top.
UniProt P13569: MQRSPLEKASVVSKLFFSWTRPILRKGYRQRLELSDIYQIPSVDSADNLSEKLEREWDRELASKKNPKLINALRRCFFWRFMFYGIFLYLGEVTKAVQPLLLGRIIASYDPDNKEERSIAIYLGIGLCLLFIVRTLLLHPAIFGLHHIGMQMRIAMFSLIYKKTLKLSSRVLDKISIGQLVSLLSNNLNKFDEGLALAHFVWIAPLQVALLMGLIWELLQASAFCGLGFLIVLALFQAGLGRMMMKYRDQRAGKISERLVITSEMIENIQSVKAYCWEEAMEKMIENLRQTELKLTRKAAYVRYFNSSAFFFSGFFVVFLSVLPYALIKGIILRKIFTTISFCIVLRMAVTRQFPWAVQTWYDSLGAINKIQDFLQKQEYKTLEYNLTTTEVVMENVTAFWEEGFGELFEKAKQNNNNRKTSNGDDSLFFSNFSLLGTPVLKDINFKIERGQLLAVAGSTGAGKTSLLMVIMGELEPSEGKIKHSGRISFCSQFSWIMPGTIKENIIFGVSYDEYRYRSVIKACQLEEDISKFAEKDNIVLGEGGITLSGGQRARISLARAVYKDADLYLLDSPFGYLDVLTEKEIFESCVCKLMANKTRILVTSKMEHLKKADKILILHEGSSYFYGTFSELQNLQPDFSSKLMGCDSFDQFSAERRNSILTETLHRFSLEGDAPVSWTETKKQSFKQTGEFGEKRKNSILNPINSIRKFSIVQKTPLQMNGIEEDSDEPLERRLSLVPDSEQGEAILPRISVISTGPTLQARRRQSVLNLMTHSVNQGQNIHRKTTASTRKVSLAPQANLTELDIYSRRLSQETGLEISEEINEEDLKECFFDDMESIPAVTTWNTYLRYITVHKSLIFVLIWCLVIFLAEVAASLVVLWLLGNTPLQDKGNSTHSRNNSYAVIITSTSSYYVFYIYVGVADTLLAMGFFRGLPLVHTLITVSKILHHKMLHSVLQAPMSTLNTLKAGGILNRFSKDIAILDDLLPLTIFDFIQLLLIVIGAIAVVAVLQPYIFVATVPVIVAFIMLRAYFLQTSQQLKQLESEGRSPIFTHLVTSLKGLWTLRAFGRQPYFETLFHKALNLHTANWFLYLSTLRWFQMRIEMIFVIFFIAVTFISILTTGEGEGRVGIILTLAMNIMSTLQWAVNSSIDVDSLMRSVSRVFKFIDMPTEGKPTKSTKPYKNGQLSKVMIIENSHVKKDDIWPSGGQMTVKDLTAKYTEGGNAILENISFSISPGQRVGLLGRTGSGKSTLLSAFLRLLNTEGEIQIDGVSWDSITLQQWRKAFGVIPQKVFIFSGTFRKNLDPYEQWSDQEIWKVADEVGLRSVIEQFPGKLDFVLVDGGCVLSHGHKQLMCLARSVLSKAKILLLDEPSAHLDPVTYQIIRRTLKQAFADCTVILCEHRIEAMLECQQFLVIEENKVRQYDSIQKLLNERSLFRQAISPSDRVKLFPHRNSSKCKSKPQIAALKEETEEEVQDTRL
UniProt Q99942: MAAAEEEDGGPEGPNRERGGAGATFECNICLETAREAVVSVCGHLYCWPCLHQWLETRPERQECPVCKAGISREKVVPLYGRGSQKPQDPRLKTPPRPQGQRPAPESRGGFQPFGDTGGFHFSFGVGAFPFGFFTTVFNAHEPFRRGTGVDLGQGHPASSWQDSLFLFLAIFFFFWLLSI
UniProt Q9UNE7: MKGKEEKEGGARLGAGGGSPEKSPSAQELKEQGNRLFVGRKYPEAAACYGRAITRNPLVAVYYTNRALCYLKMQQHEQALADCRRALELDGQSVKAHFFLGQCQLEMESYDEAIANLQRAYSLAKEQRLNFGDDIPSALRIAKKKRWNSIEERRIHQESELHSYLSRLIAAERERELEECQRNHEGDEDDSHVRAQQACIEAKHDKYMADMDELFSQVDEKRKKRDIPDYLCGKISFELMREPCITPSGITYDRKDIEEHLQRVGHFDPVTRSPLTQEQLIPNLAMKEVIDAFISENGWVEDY

For experiment [1], the target named is T2562G-CFTR (CFTR made from cDNA with the synonymous SNP T2562G, Thr854 ACT to ACG) (human) (UniProt P13569). As to the kind of experiment: co-IP; lysates of HeLa cells expressing CFTR variants; immunoprecipitation with an anti-CFTR antibody; blots probed with anti-CHIP and anti-RMA1 antibodies; co-precipitated CHIP and RMA1 normalized to immunoprecipitated CFTR (bands B and C).

Experiment [2] concerns the target wild-type cystic fibrosis transmembrane conductance regulator (CFTR) (human) (UniProt P13569). Described as above.

These are yes or no findings as the source states them, for the method shown. In cells and extracts the contact can be indirect. Some binding calls cover weakened binding; strength is not graded here.

For “RING domain protein RMA1 (also known as RING Finger Protein 5 [RNF5]) (from UniProt Q99942 1-180) (enzyme)”, the binding result in experiment [1] and in experiment [2] was “binds” each time.
Consider “C-terminus of Hsc70-interacting protein (CHIP) (from UniProt Q9UNE7 1-303) (enzyme)”, for which the binding entry in experiment [1] and in experiment [2] was “binds” throughout.
